Experiment [1] concerns the target T1, CCR6*GFP (human CC-chemokine receptor 6 fused to GFP) (human) (UniProt P51684).
T1 sequence: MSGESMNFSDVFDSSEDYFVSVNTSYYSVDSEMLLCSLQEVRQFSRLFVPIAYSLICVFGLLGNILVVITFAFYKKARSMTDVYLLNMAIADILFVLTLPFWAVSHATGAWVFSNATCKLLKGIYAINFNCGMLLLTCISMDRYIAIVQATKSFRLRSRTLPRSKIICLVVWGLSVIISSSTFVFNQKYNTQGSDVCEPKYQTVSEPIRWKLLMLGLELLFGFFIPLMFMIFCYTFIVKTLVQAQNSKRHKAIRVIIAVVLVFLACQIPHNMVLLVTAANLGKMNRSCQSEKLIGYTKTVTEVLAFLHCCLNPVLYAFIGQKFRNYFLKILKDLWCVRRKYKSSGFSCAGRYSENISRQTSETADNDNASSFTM
Description: condition: only after 10 min of incubation (500 ng/mL CCL18); co-IP; as a1, but cells loaded with 500 ng/mL recombinant human CCL18 for 10 min only; only the binder purified.

Experiment [2] deals with T1, CCR6*GFP (human CC-chemokine receptor 6 fused to GFP) (human). In words: co-IP; RLE-6TN CCR6*GFP cells loaded with 500 ng/mL recombinant human CCL18 for 30 min, gently lysed, CCR6*GFP isolated with the isolation kit for GFP-tagged proteins (anti-GFP beads, Miltenyi), western blot with anti-CCR6 and anti-CCL18; only the binder purified. On the technique in general: In western blotting, separated proteins are transferred to a membrane and probed.

These are yes or no findings as the source states them, for the method shown. In cells and extracts the contact can be indirect. Some results given as binding are weak or reduced against the parent protein; the word gives no strength. Tags and fused reporters may be left off the sequences shown.

In publication PMC10854834 one finds binding data, which are given here for 1 molecule.

B1: recombinant human CCL18 (CC-chemokine 18) (ligand, UniProt P55774 21-89)
chain: AQVGTNKELCCLVYTSWQIPQKFIVDYSETSPQCPKPGVILLTKRGRQICADPNKKWVQKYISDLKLNA
With B1, the binding entry is “no binding” in experiment [1] and “binds” in experiment [2].
